Measurements: PMC8206134, “Structural basis of mechano-chemical coupling by the mitotic kinesin KIF14” (Nature Communications, 2021)
No constants are given. Whether binding was seen depends on the method and setting.

Biological target: KIF14 construct K735 (residues Asn-391 to Leu-735) (mouse) (UniProt L0N7N1)
Assay: SEC; size-exclusion chromatography of the KIF14 constructs alone in solution, elution compared with protein standards (66, 44 and 25 kDa); both purified

B1: KIF14 construct K735 (residues Asn-391 to Leu-735) (domain or fragment, UniProt L0N7N1 391-735)
chain: NSQVTVAVRVRPFSKREKTEKASQVVFTNGEEITVEHPDMKQVYSFIYDVSFWSFDECHPGYASQTTVYETLAAPLLDRAFEGYNTCLFAYGQTGSGKSYTMMGLNEEPGIIPRFCEDLFAQIAKKQTSEVSYHLEMSFFEVYNEKIHDLLVCKGENGQRKQPLRAREHPVSGPYVEGLSMNVVSSYSDIQSWLELGNKQRATAATGMNDKSSRSHSVFTLVMTQTKTEVVEGEEHDHRITSRINLVDLAGSERCSTAHSSGQRLKEGVSINKSLLTLGKVISALSEQANGKRVFIPYRESTLTWLLKESLGGNSKTAMIATVSPAASNIEETLSTLRYATQARL
binding: no binding
